The subject of this test is HEK293A TEAD-LUC reporter. Put plainly: TEAD-luciferase reporter activity (YAP activation), robust Z score vs plate; higher = stronger YAP/TEAD activation. The following applies: 24 h.

16 molecules from the supplement of paper PMC10735217 can be followed below.

This is one part of the list. Single values are uncertain here, since repeats match poorly.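 In a drug-repurposing library screen, luminescence reads luciferase driven by eight TEAD-binding elements, stably integrated into human kidney-derived cells. Compounds scoring over five robust Z scores above the plate mean are called hits.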

As to `FC(F)(F)C(Cl)Br` (centres undefined), the TEAD-luciferase reporter activity (compound concentration: 200 nM) was inactive: -0.546 and the TEAD-luciferase reporter activity (compound concentration: 10 uM) was inactive: -0.363.

`FC(F)(F)C(Cl)Br` (centres undefined) [Halothane]: where the note is “compound concentration: 2 uM”, the TEAD-luciferase reporter activity is inactive: -0.4.

Take `CC1(C)SC2C(NC(=O)C(N)c3ccccc3)C(=O)N2C1C(=O)O` (centres undefined) [ampicillin benzathine]: the TEAD-luciferase reporter activity is inactive: -0.832 (compound concentration: 200 nM), inactive: -0.696 (compound concentration: 2 uM) and inactive: -1.14 (compound concentration: 10 uM).

As for `COc1cc(C(=O)C(=O)N2CCCC[C@H]2C(=O)OC(CCCc2ccccc2)CCCc2cccnc2)cc(OC)c1OC` (some centres undefined), the TEAD-luciferase reporter activity is inactive: -0.535 (compound concentration: 200 nM), inactive: -0.321 (compound concentration: 2 uM) and inactive: -1.47 (compound concentration: 10 uM).

For `CC(C(=O)O)c1ccc(C(=O)c2ccco2)cc1` (centres undefined) [Furprofen], the TEAD-luciferase reporter activity runs as follows: (compound concentration: 200 nM) inactive: -1.66; (compound concentration: 2 uM) inactive: -2.1; (compound concentration: 10 uM) inactive: -0.434.

On to `Oc1cccc(Nc2ncc(F)c(Nc3cccc(O)c3)n2)c1`, for which the TEAD-luciferase reporter activity (compound concentration: 200 nM) was inactive: -1.29, the TEAD-luciferase reporter activity (compound concentration: 2 uM) was inactive: -2.16 and the TEAD-luciferase reporter activity (compound concentration: 10 uM) is inactive: -0.508.

As for `CCCc1c2c(cc3c(=O)cc(C(=O)OCC)oc13)CCCC2`, the TEAD-luciferase reporter activity is, setting by setting: (compound concentration: 200 nM) inactive: -1.91; (compound concentration: 2 uM) inactive: -1.23; (compound concentration: 10 uM) inactive: 0.794.

With `[N-]=[N+]=N[C@]1(CO)O[C@@H](n2ccc(N)nc2=O)[C@@H](F)[C@@H]1O` [Azvudine], the TEAD-luciferase reporter activity by setting is: (compound concentration: 200 nM) inactive: 0.63; (compound concentration: 2 uM) inactive: -0.885; (compound concentration: 10 uM) inactive: -0.591.

For `CC(C)Cn1cnc2c1c(=O)n(C)c(=O)n2C` [Isbufylline], the TEAD-luciferase reporter activity by setting is: (compound concentration: 200 nM) inactive: 4.16; (compound concentration: 2 uM) inactive: 0.807; (compound concentration: 10 uM) inactive: 2.97.

Consider `Cc1[nH]c(=O)c(C#N)cc1-c1ccc2c(n1)N(C)C(=O)CO2`, for which the TEAD-luciferase reporter activity (compound concentration: 200 nM) is inactive: -1.27, the TEAD-luciferase reporter activity (compound concentration: 2 uM) was inactive: -0.626 and the TEAD-luciferase reporter activity (compound concentration: 10 uM) is active: 5.84.

For `Cc1ccc(C(=O)N2CCC(n3c(=O)[nH]c4ccccc43)CC2)cc1`, the TEAD-luciferase reporter activity (compound concentration: 200 nM) was inactive: -0.39 and the TEAD-luciferase reporter activity (compound concentration: 10 uM) was inactive: 1.07.

With `CC(C)(Sc1cc(C(C)(C)C)c(O)c(C(C)(C)C)c1)Sc1cc(C(C)(C)C)c(OCCCC(=O)O)c(C(C)(C)C)c1`, the TEAD-luciferase reporter activity is inactive: -1.24 (compound concentration: 200 nM), inactive: 0.504 (compound concentration: 2 uM) and inactive: 0.88 (compound concentration: 10 uM).

Consider `CCCCCCCCCC(=O)OC[C@H]1O[C@H](O[C@H]2O[C@H](COC(=O)CCCCCCCCC)[C@@H](O)[C@H](O)[C@H]2O)[C@H](O)[C@@H](O)[C@@H]1O`, for which the TEAD-luciferase reporter activity (compound concentration: 200 nM) is inactive: -0.395, the TEAD-luciferase reporter activity (compound concentration: 2 uM) is inactive: -0.122 and the TEAD-luciferase reporter activity (compound concentration: 10 uM) was inactive: -0.303.

Regarding `CSc1nc2cc(Cl)c(Oc3cccc(Cl)c3Cl)cc2[nH]1` [triclabendazole], the TEAD-luciferase reporter activity (compound concentration: 2 uM) is inactive: -1.41.

`Cc1cc2nc3c(=O)[nH]c(=O)nc-3n(C[C@@H](O)[C@@H](O)[C@@H](O)CO)c2cc1C` [riboflavin (0.1%)]: the TEAD-luciferase reporter activity (compound concentration: 2 uM) was inactive: -1.59.

For the molecule `Cc1cc2nc3c(=O)[nH]c(=O)nc-3n(C[C@@H](O)[C@@H](O)[C@@H](O)CO)c2cc1C` [riboflavin (0.1%), Avedro], the TEAD-luciferase reporter activity runs as follows: (compound concentration: 200 nM) inactive: -3.18; (compound concentration: 10 uM) inactive: -1.3.
